Data from paper PMC6426930.
No constants are given. Whether binding was seen depends on the method and setting. For some of these results: In cells and extracts the contact can be indirect. Some binding calls cover weakened binding; strength is not graded here. Blank lines part the entries; values can stand above or below the molecule they belong to.

Protein sequences, listed by entry. Tags and fused reporters are not part of them. Lines headed by an entry give the natural chain unless they say otherwise; changes in a name come on top.
UniProt P19447: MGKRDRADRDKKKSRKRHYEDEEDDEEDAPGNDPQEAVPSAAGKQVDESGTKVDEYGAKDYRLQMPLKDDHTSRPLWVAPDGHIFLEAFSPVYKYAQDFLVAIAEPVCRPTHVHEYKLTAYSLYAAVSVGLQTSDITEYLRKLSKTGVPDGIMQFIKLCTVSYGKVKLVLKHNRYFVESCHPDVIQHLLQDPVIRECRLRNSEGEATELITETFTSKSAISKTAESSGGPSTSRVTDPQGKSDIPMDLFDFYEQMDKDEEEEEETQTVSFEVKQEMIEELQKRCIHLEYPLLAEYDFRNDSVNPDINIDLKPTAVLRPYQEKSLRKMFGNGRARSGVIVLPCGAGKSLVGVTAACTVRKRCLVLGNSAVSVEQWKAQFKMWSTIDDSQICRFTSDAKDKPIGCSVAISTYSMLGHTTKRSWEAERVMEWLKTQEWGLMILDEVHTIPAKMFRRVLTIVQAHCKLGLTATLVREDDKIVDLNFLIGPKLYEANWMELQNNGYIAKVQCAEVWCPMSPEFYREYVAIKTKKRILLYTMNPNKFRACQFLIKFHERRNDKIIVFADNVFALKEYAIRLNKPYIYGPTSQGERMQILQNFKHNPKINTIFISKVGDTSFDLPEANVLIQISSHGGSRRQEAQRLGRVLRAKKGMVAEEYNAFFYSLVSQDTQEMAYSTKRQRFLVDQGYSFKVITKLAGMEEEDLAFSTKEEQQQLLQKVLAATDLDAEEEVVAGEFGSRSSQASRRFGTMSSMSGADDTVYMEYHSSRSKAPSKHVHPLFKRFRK
UniProt Q92830: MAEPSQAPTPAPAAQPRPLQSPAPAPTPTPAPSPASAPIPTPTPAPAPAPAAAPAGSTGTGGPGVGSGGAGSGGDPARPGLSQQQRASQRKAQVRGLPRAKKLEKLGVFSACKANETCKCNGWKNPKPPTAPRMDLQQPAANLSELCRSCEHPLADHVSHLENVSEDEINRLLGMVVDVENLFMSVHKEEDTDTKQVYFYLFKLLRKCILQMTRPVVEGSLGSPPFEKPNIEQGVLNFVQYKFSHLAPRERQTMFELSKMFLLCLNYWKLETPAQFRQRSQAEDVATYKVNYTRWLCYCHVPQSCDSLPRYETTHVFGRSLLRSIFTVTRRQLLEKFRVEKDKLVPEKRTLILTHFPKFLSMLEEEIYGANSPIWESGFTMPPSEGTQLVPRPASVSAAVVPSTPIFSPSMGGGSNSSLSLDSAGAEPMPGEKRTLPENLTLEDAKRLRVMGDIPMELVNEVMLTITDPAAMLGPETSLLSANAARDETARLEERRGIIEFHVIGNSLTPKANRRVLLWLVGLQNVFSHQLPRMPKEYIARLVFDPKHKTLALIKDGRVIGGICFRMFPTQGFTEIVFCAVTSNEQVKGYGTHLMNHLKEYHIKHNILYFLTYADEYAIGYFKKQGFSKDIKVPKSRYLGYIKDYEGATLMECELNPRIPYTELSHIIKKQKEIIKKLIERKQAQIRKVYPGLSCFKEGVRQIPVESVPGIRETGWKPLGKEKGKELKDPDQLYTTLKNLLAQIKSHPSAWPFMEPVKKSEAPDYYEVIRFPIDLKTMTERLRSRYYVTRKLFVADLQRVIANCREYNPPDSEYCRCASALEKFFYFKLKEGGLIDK
UniProt O94864: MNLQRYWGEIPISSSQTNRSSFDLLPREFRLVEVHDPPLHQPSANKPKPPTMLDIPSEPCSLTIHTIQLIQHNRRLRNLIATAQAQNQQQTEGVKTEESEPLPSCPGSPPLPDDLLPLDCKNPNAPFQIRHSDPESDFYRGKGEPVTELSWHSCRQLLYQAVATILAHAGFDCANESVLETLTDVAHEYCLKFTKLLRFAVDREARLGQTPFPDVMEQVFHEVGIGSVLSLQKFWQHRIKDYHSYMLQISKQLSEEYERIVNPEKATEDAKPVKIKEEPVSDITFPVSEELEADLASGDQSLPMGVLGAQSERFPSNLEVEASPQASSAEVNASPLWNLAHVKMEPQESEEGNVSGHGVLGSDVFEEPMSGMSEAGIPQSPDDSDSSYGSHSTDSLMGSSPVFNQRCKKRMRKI
UniProt P32780: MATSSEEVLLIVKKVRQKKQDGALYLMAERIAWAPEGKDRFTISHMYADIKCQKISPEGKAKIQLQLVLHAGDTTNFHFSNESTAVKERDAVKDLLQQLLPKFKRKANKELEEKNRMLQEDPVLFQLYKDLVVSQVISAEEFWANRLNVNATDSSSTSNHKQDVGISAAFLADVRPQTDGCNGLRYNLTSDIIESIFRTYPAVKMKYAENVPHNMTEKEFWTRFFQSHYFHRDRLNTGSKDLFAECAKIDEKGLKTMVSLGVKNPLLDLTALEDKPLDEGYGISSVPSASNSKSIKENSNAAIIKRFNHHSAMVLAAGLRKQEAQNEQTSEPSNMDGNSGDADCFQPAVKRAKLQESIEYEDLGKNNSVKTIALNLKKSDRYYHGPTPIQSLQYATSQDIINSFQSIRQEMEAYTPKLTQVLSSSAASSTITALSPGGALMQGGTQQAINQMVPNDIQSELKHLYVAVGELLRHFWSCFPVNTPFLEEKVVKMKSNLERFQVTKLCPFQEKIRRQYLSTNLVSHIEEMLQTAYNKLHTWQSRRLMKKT
UniProt Q92831: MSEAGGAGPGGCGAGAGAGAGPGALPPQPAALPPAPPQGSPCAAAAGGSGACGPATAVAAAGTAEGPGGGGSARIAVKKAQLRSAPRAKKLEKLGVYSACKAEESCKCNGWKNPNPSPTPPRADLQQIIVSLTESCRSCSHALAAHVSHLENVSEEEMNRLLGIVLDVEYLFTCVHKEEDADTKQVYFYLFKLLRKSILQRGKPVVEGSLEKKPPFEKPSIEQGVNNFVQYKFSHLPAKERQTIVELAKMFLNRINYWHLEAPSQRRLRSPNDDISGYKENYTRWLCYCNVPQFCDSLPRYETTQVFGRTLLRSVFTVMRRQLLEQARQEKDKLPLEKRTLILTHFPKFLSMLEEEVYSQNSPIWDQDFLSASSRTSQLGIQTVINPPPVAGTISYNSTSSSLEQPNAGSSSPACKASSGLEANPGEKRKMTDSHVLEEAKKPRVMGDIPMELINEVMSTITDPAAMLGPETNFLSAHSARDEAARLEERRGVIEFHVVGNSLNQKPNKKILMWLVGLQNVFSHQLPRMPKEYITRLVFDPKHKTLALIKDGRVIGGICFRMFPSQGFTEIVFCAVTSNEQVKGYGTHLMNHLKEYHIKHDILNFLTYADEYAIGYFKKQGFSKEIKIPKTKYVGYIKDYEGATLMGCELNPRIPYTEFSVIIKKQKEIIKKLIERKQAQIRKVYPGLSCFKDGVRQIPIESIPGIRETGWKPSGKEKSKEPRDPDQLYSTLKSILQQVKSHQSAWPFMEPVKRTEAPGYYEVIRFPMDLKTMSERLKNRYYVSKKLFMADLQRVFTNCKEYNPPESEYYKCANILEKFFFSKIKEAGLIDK

Legend:
[1] = biological target: XPB fused C-terminally to GFP, expressed from the endogenous XPB locus (U2OS^XPB::GFP) (human (endogenous in U2OS)) (UniProt P19447); test: co-IP; GFP-trap immunoprecipitation from CRISPR/Cas9 engineered U2OS^XPB::GFP cells; immunoblot (Supplementary Fig. 3b)
[2] = biological target: GFP-tagged XPB^WT (wild-type XPB stably expressed in XP-B/CS^F99S + XPB^WT cells) (human) (UniProt P19447); test: co-IP; GFP-Trap immunoprecipitation of GFP-tagged XPB^WT from nuclear extracts of stably transfected XP-B/CS^F99S + XPB^WT cells, washed with 200 mM salt; immunoblot
[3] = biological target: Recombinant FLAG tagged KAT2A (rKAT2A) (human) (UniProt Q92830); test: pull-down; purified recombinant core TFIIH incubated with purified Flag-KAT2A (400 ng); precipitated with polyclonal rabbit anti-KAT2A antibody, unspecific IgG as control; immunoblot for XPB, p52 and KAT2A; both purified
[4] = biological target: Recombinant wild-type XPB (rXPB^WT) (human) (UniProt P19447); test: pull-down; XPB held on anti-XPB covered beads, washed three times, then incubated 1 h at 4 °C with purified Flag-KAT2A in lysis buffer (20 mM Tris-HCl pH 7.5, 150 mM KCl, 20% glycerol, 0.1% NP40); washed with RIPA buffer; immunoblot; both purified
[5] = biological target: Recombinant XPB with the XP-B/CS mutation F99S (rXPB^F99S) (human) (UniProt P19447); test: as above
[6] = biological target: XPB fused C-terminally to GFP, expressed from the endogenous XPB locus (U2OS^XPB::GFP) (human (endogenous in U2OS)) (UniProt P19447); test: co-IP

Molecule: KAT2A (GCN5), endogenous (from UniProt Q92830 1-837)
binding [1]: binds
binding [2]: binds

Molecule: Recombinant FLAG tagged KAT2A (rKAT2A) (from UniProt Q92830 1-837) (enzyme)
binding [4]: binds
binding [5]: binds

Molecule: SUPT7L (a subunit of hSAGA), endogenous (from UniProt O94864 1-414)
binding [1]: binds
binding [2]: binds

Molecule: p62 subunit of TFIIH, endogenous (from UniProt P32780 1-548)
binding [2]: binds

B1: ZZZ3 (hATAC), endogenous (protein, UniProt Q8IYH5 1-903)
chain: MAASRSTRVTRSTVGLNGLDESFCGRTLRNRSIAHPEEISSNSQVRSRSPKKRPEPVPIQKGNNNGRTTDLKQQSTRESWVSPRKRGLSSSEKDNIERQAIENCERRQTEPVSPVLKRIKRCLRSEAPNSSEEDSPIKSDKESVEQRSTVVDNDADFQGTKRACRCLILDDCEKREIKKVNVSEEGPLNSAVVEEITGYLAVNGVDDSDSAVINCDDCQPDGNTKQNSIGSYVLQEKSVAENGDTDTQTSMFLDSRKEDSYIDHKVPCTDSQVQVKLEDHKIVTACLPVEHVNQLTTEPATGPFSETQSSLRDSEEEVDVVGDSSASKEQCKENTNNELDTSLESMPASGEPEPSPVLDCVSAQMMSLSEPQEHRYTLRTSPRRAAPTRGSPTKNSSPYRENGQFEENNLSPNETNATVSDNVSQSPTNPGEISQNEKGICCDSQNNGSEGVSKPPSEARLNIGHLPSAKESASQHITEEEDDDPDVYYFESDHVALKHNKDYQRLLQTIAVLEAQRSQAVQDLESLGRHQREALKNPIGFVEKLQKKADIGLPYPQRVVQLPEIVWDQYTHSLGNFEREFKNRKRHTRRVKLVFDKVGLPARPKSPLDPKKDGESLSYSMLPLSDGPEGSSSRPQMIRGRLCDDTKPETFNQLWTVEEQKKLEQLLIKYPPEEVESRRWQKIADELGNRTAKQVASRVQKYFIKLTKAGIPVPGRTPNLYIYSKKSSTSRRQHPLNKHLFKPSTFMTSHEPPVYMDEDDDRSCFHSHMNTAVEDASDDESIPIMYRNLPEYKELLQFKKLKKQKLQQMQAESGFVQHVGFKCDNCGIEPIQGVRWHCQDCPPEMSLDFCDSCSDCLHETDIHKEDHQLEPIYRSETFLDRDYCVSQGTSYNYLDPNYFPANR
binding [6]: binds

More lines, now with the values ahead:

binding [2]: no binding
Molecule: KAT2B (PCAF), endogenous (from UniProt Q92831 1-832)

binding [3]: binds
Molecule: Purified recombinant wild-type core TFIIH (cIIH-XPB^WT) (from UniProt P19447 1-782; P32780 1-548; Q92759 1-462; Q13888 1-395; Q13889 1-308) (complex)
